These are yes or no findings as the source states them, for the method shown. Binding seen in cells or lysates may run through a third protein.
Target: Cellular prion protein (mouse (endogenous in hippocampus)) (UniProt P04925)
Test: co-IP

Protein sequences, listed by entry. Tags and fused reporters are not part of them.
UniProt O88704: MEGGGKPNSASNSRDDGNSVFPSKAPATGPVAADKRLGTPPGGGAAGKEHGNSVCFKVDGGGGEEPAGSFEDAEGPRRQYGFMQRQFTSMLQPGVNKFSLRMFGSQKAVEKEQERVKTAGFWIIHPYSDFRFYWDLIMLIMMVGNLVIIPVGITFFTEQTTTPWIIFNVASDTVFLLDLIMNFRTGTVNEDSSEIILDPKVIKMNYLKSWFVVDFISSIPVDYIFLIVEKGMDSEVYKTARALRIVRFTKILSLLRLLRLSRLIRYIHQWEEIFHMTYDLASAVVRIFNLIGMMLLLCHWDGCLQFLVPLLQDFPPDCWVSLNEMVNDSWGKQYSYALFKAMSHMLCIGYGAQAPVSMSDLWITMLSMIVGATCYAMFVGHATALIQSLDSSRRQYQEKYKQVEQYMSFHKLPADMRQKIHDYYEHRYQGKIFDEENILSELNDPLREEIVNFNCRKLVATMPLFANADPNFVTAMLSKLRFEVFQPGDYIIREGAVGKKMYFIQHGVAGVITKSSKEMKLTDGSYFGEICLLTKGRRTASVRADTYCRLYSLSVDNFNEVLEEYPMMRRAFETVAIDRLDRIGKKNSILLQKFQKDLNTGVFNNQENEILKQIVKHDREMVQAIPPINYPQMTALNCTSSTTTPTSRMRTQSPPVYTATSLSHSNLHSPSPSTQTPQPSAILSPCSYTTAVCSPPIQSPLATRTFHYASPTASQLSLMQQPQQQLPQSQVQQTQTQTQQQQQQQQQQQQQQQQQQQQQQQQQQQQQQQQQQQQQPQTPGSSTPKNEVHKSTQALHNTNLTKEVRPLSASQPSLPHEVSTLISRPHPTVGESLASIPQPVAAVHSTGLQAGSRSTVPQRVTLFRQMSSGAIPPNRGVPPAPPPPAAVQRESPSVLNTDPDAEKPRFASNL

Question: For “Hyperpolarization-activated cyclic nucleotide-gated channel subunit HCN1 (from UniProt O88704 1-910)”, which binding is on record?
Answer: Its binding is “no binding”.

B1: Hyperpolarization-activated cyclic nucleotide-gated channel subunit HCN2 (protein, UniProt O88703 1-863)
chain: MDARGGGGRPGDSPGTTPAPGPPPPPPPPAPPQPQPPPAPPPNPTTPSHPESADEPGPRARLCSRDSACTPGAAKGGANGECGRGEPQCSPEGPARGPKVSFSCRGAASGPSAAEEAGSEEAGPAGEPRGSQASFLQRQFGALLQPGVNKFSLRMFGSQKAVEREQERVKSAGAWIIHPYSDFRFYWDFTMLLFMVGNLIIIPVGITFFKDETTAPWIVFNVVSDTFFLMDLVLNFRTGIVIEDNTEIILDPEKIKKKYLRTWFVVDFVSSIPVDYIFLIVEKGIDSEVYKTARALRIVRFTKILSLLRLLRLSRLIRYIHQWEEIFHMTYDLASAVMRICNLISMMLLLCHWDGCLQFLVPMLQDFPSDCWVSINNMVNHSWSELYSFALFKAMSHMLCIGYGRQAPESMTDIWLTMLSMIVGATCYAMFIGHATALIQSLDSSRRQYQEKYKQVEQYMSFHKLPADFRQKIHDYYEHRYQGKMFDEDSILGELNGPLREEIVNFNCRKLVASMPLFANADPNFVTAMLTKLKFEVFQPGDYIIREGTIGKKMYFIQHGVVSVLTKGNKEMKLSDGSYFGEICLLTRGRRTASVRADTYCRLYSLSVDNFNEVLEEYPMMRRAFETVAIDRLDRIGKKNSILLHKVQHDLSSGVFNNQENAIIQEIVKYDREMVQQAELGQRVGLFPPPPPPQVTSAIATLQQAVAMSFCPQVARPLVGPLALGSPRLVRRAPPGPLPPAASPGPPAASPPAAPSSPRAPRTSPYGVPGSPATRVGPALPARRLSRASRPLSASQPSLPHGVPAPSPAASARPASSSTPRLGPAPTARTAAPSPDRRDSASPGAASGLDPLDSARSRLSSNL
Question: Which binding does the source give for B1 here?
Answer: The binding was “no binding”.

— paper PMC4805597
